Data taken from PubChem BioAssay AID1918979, deposited by NCATS (2023).

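Human OCI-MY1 myeloma cells were treated with library drugs for 48 h, and viability was read as ATP-driven luminescence with CellTiter-Glo. Each drug was tested as a dilution series from about 0.03 nM up to 92 µM, most series ending at 45.8 µM. The number is the fitted AC50, the concentration giving half the maximal change; a lower value means a more potent effect, and some of these curves rise rather than fall. Calls come from NCATS curve-class scoring, where inconclusive compounds score 1 to 39, for example weak, poorly fitted, single-point or opposite-direction curves.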

Values are in µM. Every entry below has the call inconclusive. Only part of the assay is shown, chiefly results filed as inconclusive. A potency from a partial, single-point or poor curve is only a rough figure. Some entries filed as inconclusive have a full curve. The first word of each remark tells which way the curve ran; it can be opposite to the aim of the assay. Activity scores are not listed here.

| Compound | potency (µM) | remark |
|---|---|---|
| `Nc1nc(N)c2nc(-c3cccc(O)c3)c(-c3cccc(O)c3)nc2n1` | 20.93 | cytotoxic, partial curve |
| `CC(C)(C)NC(=O)[C@H]1CN(Cc2cccnc2)CCN1C[C@@H](O)C[C@@H](Cc1ccccc1)C(=O)N[C@H]1c2ccccc2C[C@H]1O` | 0.0017 | rising, full curve |
| `Cc1ccc2nc(NC(=O)CSc3nc4c(c(=O)n3-c3ccccc3)SCC4)sc2c1` | 20.93 | cytotoxic, partial curve, poor fit |
| `C[C@@H]1[C@H](O)[C@@H](C)C=CC=CC=CC=CC=CC=CC=C[C@H](O[C@@H]2O[C@H](C)[C@H](O)[C@H](N)[C@@H]2O)C[C@@H]2O[C@](O)(C[C@@H](O)C[C@@H](O)[C@H](O)CC[C@@H](O)C[C@@H](O)CC(=O)O[C@H]1C)C[C@H](O)[C@@H]2C(=O)O` | 0.0019 | rising, full curve |
| `CN(C)CC[C@H](c1ccc(Cl)cc1)c1ccccn1` | 0.0015 | rising, full curve, poor fit |
| `COC(=O)Nc1nc2ccc(S(=O)c3ccccc3)cc2[nH]1` (stereo not shown) | 26.35 | cytotoxic, single point |
| `Nc1nc(NCCNc2ncc(-n3ccnc3)c(-c3ccc(Cl)cc3Cl)n2)ccc1[N+](=O)[O-]` | 6.619 | rising, partial curve |
| `CN1[C@@H]2CCC[C@@H]1CC(NC(=O)c1nn(C)c3ccccc13)C2` (stereo partly shown) | 0.0037 | rising, full curve, poor fit |
| `C[C@H]1C[C@H]2[C@@H]3CCC4=CC(=O)C=C[C@]4(C)[C@@H]3C(=O)C[C@]2(C)[C@@]1(O)C(=O)CO` | 0.0021 | rising, full curve, poor fit |
| `CCS(=O)(=O)c1cccc(-c2cc(C(=O)NC3CCN(C)CC3)c(C)c3[nH]c4ncc(C)cc4c23)c1` | 14.82 | cytotoxic, partial curve |
| `CCOc1cc2ncc(C#N)c(Nc3ccc(OCc4ccccn4)c(Cl)c3)c2cc1NC(=O)C=CCN(C)C` | 11.77 | cytotoxic, partial curve |
| `CCN(CC)CCCCNc1ncc2c(n1)N(C)C(=O)N(c1c(Cl)c(OC)cc(OC)c1Cl)C2` | 23.48 | cytotoxic, single point |
| `Cc1cnc(Nc2ccc(CN3CCOCC3)cc2)nc1Nc1cccc(S(=O)(=O)NC(C)(C)C)c1` | 7.427 | cytotoxic, partial curve |
| `NC(=O)c1cccc2cn(-c3ccc([C@@H]4CCCNC4)cc3)nc12` | 8.333 | rising, single point |
| `CNC(=O)CN1CCC(Oc2cc3c(Nc4cccc(Cl)c4F)ncnc3cc2OC)CC1` | 0.7427 | cytotoxic, full curve, poor fit |
| `Cn1cc(-c2cnn3c(N)c(Br)c([C@H]4CCCNC4)nc23)cn1` | 16.63 | cytotoxic, partial curve |
| `COc1cc2c(Nc3ccc(Cl)c(Cl)c3F)ncnc2cc1OCC1C[C@@H]2CN(C)C[C@H]2C1` | 20.93 | cytotoxic, partial curve, poor fit |
| `Cc1cnc(NC(=O)Nc2cc(Br)c(C)cc2OC[C@@H]2CNCCO2)cn1` | 16.63 | cytotoxic, partial curve |